Laboratory results from paper doi:10.1101/2025.11.01.685922.
No constants are given. Whether binding was seen depends on the method and setting. Binding seen in cells or lysates may run through a third protein. Binding calls can cover weak binding; strength is not graded here. For part of these data: Where a sequence is shown, tags or fusion partners need not be part of it.

Protein sequences, listed by entry. Tags and fused reporters are not part of them. Lines headed by an entry give the natural chain unless they say otherwise; changes in a name come on top.
UniProt P10644: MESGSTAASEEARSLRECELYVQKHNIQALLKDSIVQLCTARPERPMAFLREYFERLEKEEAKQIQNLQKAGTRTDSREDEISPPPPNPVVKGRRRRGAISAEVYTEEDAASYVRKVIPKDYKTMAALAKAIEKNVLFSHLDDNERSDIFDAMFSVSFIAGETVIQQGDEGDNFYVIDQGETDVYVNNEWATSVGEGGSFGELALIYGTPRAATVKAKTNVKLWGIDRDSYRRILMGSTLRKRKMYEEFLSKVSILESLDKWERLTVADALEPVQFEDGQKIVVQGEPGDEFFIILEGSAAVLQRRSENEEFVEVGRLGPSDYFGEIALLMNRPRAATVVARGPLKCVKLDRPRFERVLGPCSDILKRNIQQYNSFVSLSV
UniProt Q9DBC7: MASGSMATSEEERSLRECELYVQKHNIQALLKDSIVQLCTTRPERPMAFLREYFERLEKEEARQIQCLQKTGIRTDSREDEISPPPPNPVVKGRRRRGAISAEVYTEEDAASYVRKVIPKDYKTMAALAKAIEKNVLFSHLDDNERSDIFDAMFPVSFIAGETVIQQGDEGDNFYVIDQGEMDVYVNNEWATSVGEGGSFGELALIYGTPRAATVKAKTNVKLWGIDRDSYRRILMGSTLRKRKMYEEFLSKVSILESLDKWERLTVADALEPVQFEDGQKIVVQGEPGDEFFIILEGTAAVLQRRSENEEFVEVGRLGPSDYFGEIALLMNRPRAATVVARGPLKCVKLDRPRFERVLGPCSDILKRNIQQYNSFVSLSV

Experiments:
Test in all cases: co-IP
[1] = target: T1, FAM134B-V5, wild-type full-length (FL), stably expressed in PDAC cells (mouse) (UniProt Q8VE91)
T1 sequence: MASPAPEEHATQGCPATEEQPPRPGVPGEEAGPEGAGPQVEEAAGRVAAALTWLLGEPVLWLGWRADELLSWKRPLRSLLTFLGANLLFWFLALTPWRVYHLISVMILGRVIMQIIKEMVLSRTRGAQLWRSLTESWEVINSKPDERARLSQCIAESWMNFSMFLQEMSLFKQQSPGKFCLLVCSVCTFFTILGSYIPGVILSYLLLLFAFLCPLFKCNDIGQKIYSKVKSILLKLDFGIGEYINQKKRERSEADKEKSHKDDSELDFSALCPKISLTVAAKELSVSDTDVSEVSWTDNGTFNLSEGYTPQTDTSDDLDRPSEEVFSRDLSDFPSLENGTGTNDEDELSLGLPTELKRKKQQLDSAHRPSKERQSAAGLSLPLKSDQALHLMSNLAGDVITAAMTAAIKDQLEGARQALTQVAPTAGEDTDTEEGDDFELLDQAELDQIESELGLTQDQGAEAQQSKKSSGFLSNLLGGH

[2] = target: FAM134B-V5 ΔINT (mouse) (UniProt Q8VE91)
[3] = target: FAM134B-V5 mtLIR (mutant LIR) (mouse) (UniProt Q8VE91)

Substance	binding [1]	binding [2]	binding [3]
GFP-PRKAR1A mtPS (PKA-binding deficient point mutant) (from UniProt P10644)	binds		
PRKAR1A, endogenous in PDAC cells (from UniProt Q9DBC7 1-381)		binds	binds
